Measurements as given in PubChem BioAssay AID434947 (Broad Institute, 2010).
The whole screen tested about 2,200 compounds, of which about 15 (0.7%) were called active.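 The calls were made as follows: active = fitted half-maximal concentration for loss of luminescence signal no more than a set limit of log units above the top tested concentration; inconclusive = flat fit with 30 to 70% signal loss, or invalid fit; inactive = half-maximal concentration above that set limit.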 This is one part of the list.

experiment: inhibitors of ADP-Glo detection reagents, dose response, artefact control for GSK3beta inhibitor project, biochemical, luminescence, cell-free, homogeneous (AID 434947); settings: 5 uM ADP;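 also: kinase-free counter screen of ADP-Glo detection reagents for GSK3beta hits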

EC50, inactive:
Cc1ccc(OCC(=O)N/N=C/c2ccccc2)c([N+](=O)[O-])c1 > 30 µM
O=C1N=C(N2CCc3ccccc3C2)S/C1=C\c1ccc(O)cc1 > 30 µM
CCCCc1c(O)nc(SCC(=O)c2ccccc2)n(-c2ccccc2OC)c1=O > 30 µM
c1ccc(Cn2c(-c3ccco3)nc3nc4ccccc4nc32)cc1 > 30 µM
CCC(OCC(O)CN1CCCCC1)c1ccccc1 (stereo unspecified) > 30 µM
CCOC(=O)c1nnn(-c2nonc2N)c1COc1ccccc1 > 30 µM
COC(=O)c1sccc1NC(=O)c1ccc(Br)s1 > 30 µM
CCCC(=O)Nc1nn(CC(C)C)c2nc3cc(C)ccc3cc12 > 30 µM
CCOc1cc(C(=O)OCC(=O)Nc2ccc(Cl)cn2)ccc1OCC(=O)N1CCOCC1 > 30 µM
CN1CCN(C(=O)c2ccc(OCCOc3ccccc3)cc2)CC1 > 30 µM
C=CCNC(=O)c1ccc(OC)cc1 > 30 µM
Cc1ccc(-n2c(=O)c3c4c(sc3n3c(=S)[nH]nc23)CCC4)cc1 > 30 µM
CCn1c(SCc2ccccc2)nnc1-c1cccs1 > 30 µM
CSc1nc(NCc2ccco2)c2c3c(sc2n1)CN(C)CC3 > 30 µM
CCN(CC)Cc1c(C(=O)OC(C)C)nnn1-c1nonc1N > 30 µM
COc1cc(/C=N/O)ccc1Oc1ccc([N+](=O)[O-])cc1[N+](=O)[O-] > 30 µM
COc1ccc(Nc2nc(N)c([N+](=O)[O-])c(NCCO)n2)cc1 > 30 µM
O=C(COc1ccccc1)N1CCN(S(=O)(=O)c2cccs2)CC1 > 30 µM
Cc1c(C(=O)N/N=C/c2ccccn2)nnn1-c1nonc1N > 30 µM
O=C(NCCc1nnc2ccc(NCC3CCCO3)nn12)c1ccccc1 (stereo unspecified) > 30 µM
N#Cc1c(Nc2ccccc2)sc(C(=O)c2ccccc2)c1N > 30 µM
CC(C)N1CCc2c(sc(NC(=O)CCS(=O)(=O)c3ccccc3)c2C(N)=O)C1 > 30 µM
Cc1ccccc1NC(=O)CSc1nc(N)c(C#N)c(-c2cccs2)c1C#N > 30 µM
Cc1ccc(C2C3=C(CC(C)(C)CC3=O)Nc3onc(C)c32)cc1 (stereo unspecified) > 30 µM
COc1ccc(OC)c(C2Nc3ccccc3NC3=C2C(=O)CC(C)(C)C3)c1 (stereo unspecified) > 30 µM
Cc1ccc(CSc2ccc(-c3cccs3)nn2)cc1 > 30 µM
CO/N=C/c1ccc(N2CCOCC2)c([N+](=O)[O-])c1 > 30 µM
COc1ccc(Cl)cc1-c1nc(N)nc(NC2CCCCC2)n1 > 30 µM
Nc1nc(NCc2ccco2)nc(NCCO)c1[N+](=O)[O-] > 30 µM
CC(C)N1CC(C(=O)Nc2ccc(Br)c(Cl)c2)CC1=O (stereo unspecified) > 30 µM
O=C(c1ccccc1)c1ccc(NCCCn2ccnc2)c([N+](=O)[O-])c1 > 30 µM
Cc1ccc2c(C)c(C(=O)Nc3nnc(C)s3)oc2c1 > 30 µM
CCc1ccccc1N1C(=O)CC(N2CCc3ccccc32)C1=O (stereo unspecified) > 30 µM
O=C(Nc1ncnc2sc3c(c12)CCCC3)c1ccncc1 > 30 µM
O=C(N/N=C\c1cccnc1)c1cc(-c2ccccc2)nc2c(Cl)cccc12 > 30 µM
Cc1cc(NC(=O)COc2cccnc2[N+](=O)[O-])no1 > 30 µM
CCN(CC)Cc1c(C(=O)N/N=C/c2cccnc2)nnn1-c1nonc1N > 30 µM
Cc1ccc(-c2nc(Nc3cccc(O)c3)c3ccccc3n2)cc1 > 30 µM
CCOC(=O)c1nnn(-c2nonc2N)c1-c1ccc(C)cc1 > 30 µM
Cc1cc(=O)nc2c3ccccc3n(CC(=O)NCCCN3CCCCC3C)n12 (stereo unspecified) > 30 µM
O=c1oc(-c2cccs2)nc2sc3c(c12)CCC3 > 30 µM
O=C(NCCCN1CCN(Cc2ccccc2)CC1)C1CCN(S(=O)(=O)N2CCCC2)CC1 > 30 µM
COC(=O)c1ccc(CSc2nnc(-c3ccncc3)o2)cc1 > 30 µM
COc1ccc(-c2nn(-c3ccccc3)cc2C=O)cc1[N+](=O)[O-] > 30 µM
O=C(O)CCN1C(=O)/C(=C\c2ccc(-c3nc4ccccc4s3)o2)SC1=S > 30 µM
CCN1CCN(CCCNC(=O)c2ccc3c(c2)NC(=O)c2ccccc2S3)CC1 > 30 µM
CCOCCCn1c(=NC(C)=O)c(C#N)cc2c(=O)n3cccc(C)c3nc21 > 30 µM
c1ccc(-c2nc(NCCCn3ccnc3)c3ccccc3n2)cc1 > 30 µM
O=C(NCC(c1ccco1)N1CCc2ccccc2C1)c1ccccc1Cl (stereo unspecified) > 30 µM
Clc1ccc2c(c1)Nc1ccccc1CC2 > 30 µM
O=C(Nc1ccc(O)c2c(=O)cc(-c3ccccc3Cl)oc12)c1ccc(Cl)c(Cl)c1 > 30 µM
CCSc1ncnc2c(C#N)c3n(c12)CCCCC3 > 30 µM
Cc1ccc(Nc2nc(-c3ccncc3)nc3ccccc23)cc1 > 30 µM
Nc1nonc1-n1nnc(C(=O)N/N=C/c2ccccc2F)c1-c1cccs1 > 30 µM
O=C(NCC(c1ccco1)N1CCN(c2ccc(F)cc2)CC1)c1ccc2c(c1)OCO2 (stereo unspecified) > 30 µM
c1ccc2c(c1)oc1c(NCCCn3ccnc3)ncnc12 > 30 µM

Of the compounds above, these have bromine.
EC50, inactive:
COC(=O)c1sccc1NC(=O)c1ccc(Br)s1 > 30 µM
CC(C)N1CC(C(=O)Nc2ccc(Br)c(Cl)c2)CC1=O (stereo unspecified) > 30 µM

Reprinted at random: two entries already listed
EC50, inactive:
O=C(COc1ccccc1)N1CCN(S(=O)(=O)c2cccs2)CC1 > 30 µM
Cc1ccccc1NC(=O)CSc1nc(N)c(C#N)c(-c2cccs2)c1C#N > 30 µM
